Results on 2 substances are retold here after article PMC4008428.

Protein sequences, listed by entry. Tags and fused reporters are not part of them. Residues count along the entry.
UniProt P35225, residues 25-146: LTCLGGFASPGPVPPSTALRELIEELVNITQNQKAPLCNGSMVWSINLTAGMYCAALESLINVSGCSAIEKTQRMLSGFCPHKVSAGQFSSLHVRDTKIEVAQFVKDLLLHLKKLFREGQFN

Results are given in words; binding and its absence hold for the method and conditions named. Some entries that bind do so weakly or less than the wild type.

In test [1] the target is T1, Full length, human IL13Rα2 expressed on D283 cells (D283-IL13Rα2) (human) (UniProt Q14627).
T1 sequence: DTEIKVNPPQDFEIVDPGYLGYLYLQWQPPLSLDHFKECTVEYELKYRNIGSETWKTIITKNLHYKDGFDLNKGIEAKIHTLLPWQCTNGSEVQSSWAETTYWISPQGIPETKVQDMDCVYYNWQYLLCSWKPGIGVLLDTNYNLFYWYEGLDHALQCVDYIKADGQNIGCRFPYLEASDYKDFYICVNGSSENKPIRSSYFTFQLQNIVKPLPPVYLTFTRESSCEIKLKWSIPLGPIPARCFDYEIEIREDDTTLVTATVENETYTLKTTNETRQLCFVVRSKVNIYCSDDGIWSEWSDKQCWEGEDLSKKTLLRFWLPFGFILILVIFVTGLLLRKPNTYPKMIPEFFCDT
As to the kind of experiment: flow cytometry on cells; biotinylated IL-13 incubated with cells, then streptavidin-PE; only the binder purified.

For test [2], the target named is T2, VCAM-1, cytokine-induced on glioma and THP-1 cells (the cytokine-induced B-D13 target antigen) (human (endogenous in THP-1, PBT008, PBT003)) (UniProt P19320).
T2 sequence: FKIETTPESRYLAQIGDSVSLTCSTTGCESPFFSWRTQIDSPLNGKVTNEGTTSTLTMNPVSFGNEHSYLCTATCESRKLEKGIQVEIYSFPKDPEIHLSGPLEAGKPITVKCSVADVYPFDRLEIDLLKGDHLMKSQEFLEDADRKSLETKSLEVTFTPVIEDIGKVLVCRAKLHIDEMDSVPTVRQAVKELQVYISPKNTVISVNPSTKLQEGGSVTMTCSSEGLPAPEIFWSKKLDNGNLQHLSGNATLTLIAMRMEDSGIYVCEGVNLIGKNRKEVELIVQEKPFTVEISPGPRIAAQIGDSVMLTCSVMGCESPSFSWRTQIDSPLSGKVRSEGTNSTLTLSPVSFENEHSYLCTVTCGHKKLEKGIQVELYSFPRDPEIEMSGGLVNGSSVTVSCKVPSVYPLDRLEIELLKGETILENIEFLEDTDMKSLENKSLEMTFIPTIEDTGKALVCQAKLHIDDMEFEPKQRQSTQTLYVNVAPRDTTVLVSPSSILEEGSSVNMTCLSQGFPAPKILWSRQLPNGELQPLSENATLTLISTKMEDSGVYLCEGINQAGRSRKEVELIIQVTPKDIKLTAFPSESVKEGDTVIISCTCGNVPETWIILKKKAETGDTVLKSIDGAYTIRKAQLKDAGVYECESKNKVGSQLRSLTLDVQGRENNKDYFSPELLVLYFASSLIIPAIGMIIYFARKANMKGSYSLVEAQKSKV
The test is described as above.

For test [3], the target named is T3, IL13Rα2 constitutively expressed on U251T glioma cells (human (endogenous in U251T)) (UniProt Q14627).
T3 sequence: T1 sequence
As to the kind of experiment: flow cytometry on cells; biotinylated IL-13 / streptavidin-PE on U251T cells, in the presence and absence of 10-fold molar excess of recombinant human IL-4 or IL-13 (pre-incubation); only the binder purified. (A flow cytometer gives signals particle by particle.)

As for “Biotinylated human recombinant IL-13 (from UniProt P35225 25-146) (ligand)”, the binding result in test [1] is “binds”; in test [2] it was “no binding”; in test [3], “binds”.

Turning to “Unconjugated recombinant human IL-13 (from UniProt P35225 25-146) (ligand)”, in test [3], the binding entry was “binds”.
